Assay results from patent US20190048090A1.
Results are given in words; binding and its absence hold for the method and conditions named. Binding seen in cells or lysates may run through a third protein. Some results given as binding are weak or reduced against the parent protein; the word gives no strength.

Amino acid sequences for entries named in this document (tags omitted). A change or cut given only in a name is not applied to a line headed by its entry. Residues count along the entry.
UniProt P17301: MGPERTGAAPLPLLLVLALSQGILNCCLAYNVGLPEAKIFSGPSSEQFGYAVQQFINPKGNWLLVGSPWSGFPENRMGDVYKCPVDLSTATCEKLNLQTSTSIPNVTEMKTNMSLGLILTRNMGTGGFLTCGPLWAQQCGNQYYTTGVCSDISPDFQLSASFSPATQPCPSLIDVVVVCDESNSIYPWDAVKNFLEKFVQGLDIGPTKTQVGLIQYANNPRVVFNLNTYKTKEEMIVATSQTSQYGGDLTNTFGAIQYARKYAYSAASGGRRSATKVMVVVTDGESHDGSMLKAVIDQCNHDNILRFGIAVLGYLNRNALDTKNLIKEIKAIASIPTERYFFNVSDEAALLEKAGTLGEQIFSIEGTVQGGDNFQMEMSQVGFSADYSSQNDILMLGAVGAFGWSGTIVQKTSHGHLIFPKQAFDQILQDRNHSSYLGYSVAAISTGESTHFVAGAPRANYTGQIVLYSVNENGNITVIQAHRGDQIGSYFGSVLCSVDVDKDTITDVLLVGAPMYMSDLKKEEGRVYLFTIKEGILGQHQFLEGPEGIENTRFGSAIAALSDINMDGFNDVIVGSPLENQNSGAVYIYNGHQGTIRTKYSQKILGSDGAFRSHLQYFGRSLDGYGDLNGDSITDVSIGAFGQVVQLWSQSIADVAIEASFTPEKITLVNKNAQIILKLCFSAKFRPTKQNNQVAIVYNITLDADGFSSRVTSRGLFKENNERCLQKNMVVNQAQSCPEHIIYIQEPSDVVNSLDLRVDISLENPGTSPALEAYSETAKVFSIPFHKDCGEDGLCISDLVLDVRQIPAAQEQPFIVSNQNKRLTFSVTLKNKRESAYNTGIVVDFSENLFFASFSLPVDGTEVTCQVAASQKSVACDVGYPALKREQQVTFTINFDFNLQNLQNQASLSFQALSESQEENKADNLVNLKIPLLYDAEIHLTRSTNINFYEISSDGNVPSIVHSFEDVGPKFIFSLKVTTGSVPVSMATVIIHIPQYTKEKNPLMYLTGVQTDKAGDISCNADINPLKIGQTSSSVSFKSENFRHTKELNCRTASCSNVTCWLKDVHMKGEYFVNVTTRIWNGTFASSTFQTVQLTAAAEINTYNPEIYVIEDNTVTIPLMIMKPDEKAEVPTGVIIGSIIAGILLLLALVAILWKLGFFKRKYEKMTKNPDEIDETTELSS
UniProt P05556: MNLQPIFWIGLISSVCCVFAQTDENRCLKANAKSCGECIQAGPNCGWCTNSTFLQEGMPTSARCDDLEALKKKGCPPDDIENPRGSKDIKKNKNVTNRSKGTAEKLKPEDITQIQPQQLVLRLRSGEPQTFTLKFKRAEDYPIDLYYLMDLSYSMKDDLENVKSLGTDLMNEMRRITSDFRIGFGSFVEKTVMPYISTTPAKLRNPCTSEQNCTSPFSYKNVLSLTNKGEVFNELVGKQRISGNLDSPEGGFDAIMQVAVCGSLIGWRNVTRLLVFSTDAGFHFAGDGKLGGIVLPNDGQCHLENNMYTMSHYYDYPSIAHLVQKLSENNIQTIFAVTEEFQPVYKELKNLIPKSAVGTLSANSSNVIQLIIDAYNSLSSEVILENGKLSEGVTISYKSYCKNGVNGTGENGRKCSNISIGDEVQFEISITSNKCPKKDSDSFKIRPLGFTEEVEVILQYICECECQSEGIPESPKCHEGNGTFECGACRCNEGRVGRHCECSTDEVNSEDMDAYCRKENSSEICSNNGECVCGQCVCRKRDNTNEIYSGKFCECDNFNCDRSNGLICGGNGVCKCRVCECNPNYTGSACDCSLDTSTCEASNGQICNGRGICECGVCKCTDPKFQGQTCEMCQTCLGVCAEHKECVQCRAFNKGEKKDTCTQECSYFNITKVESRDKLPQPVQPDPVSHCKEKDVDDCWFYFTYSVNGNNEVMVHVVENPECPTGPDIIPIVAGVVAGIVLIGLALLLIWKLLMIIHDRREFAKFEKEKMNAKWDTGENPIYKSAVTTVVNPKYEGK
UniProt Q12864, residues 23-832: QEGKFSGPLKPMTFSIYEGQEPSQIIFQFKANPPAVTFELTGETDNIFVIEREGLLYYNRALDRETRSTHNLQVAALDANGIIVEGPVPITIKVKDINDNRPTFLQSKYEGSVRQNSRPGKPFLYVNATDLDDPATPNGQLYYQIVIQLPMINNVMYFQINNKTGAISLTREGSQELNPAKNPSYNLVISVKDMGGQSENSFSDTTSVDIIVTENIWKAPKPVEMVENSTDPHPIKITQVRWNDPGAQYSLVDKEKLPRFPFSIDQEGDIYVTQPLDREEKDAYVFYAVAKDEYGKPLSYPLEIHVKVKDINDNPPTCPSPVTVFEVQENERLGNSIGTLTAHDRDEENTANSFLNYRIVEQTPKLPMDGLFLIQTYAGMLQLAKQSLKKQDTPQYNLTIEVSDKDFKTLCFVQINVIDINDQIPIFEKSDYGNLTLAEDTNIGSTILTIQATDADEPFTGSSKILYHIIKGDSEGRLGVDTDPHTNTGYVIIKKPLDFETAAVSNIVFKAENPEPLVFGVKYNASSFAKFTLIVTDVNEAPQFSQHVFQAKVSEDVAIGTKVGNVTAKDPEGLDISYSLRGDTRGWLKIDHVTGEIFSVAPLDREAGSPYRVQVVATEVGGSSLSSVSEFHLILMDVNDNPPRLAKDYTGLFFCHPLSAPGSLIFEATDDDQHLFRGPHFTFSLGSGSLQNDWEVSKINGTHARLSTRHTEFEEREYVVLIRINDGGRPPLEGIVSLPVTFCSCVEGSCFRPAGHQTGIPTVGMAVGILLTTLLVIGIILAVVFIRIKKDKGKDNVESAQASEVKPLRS

Molecular target: α2β1 integrin (human) (UniProt P17301+P05556)
Test: co-immunoprecipitation and western blot, transfected RKO cells

Q: Which binding does the source give for “CDH17 wild type (human cadherin 17) (from UniProt Q12864 23-832)” here?
A: binds
